For one substance, binding results are on record in article PMC10602929.

This test addresses T1, MST2, yeast two-hybrid fusion (UniProt Q13188).
T1 sequence: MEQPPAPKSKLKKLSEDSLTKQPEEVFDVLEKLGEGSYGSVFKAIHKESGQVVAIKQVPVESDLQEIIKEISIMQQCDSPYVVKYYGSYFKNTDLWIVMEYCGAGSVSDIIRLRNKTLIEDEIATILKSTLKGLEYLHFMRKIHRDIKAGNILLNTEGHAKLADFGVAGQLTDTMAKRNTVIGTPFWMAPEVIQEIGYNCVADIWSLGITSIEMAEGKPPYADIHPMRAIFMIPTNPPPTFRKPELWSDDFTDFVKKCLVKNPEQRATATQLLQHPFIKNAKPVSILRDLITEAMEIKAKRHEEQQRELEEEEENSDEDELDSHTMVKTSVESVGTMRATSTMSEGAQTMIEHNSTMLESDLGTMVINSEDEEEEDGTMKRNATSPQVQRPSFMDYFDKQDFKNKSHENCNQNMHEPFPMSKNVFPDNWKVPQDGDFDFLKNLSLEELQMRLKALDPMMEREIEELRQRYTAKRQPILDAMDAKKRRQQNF
The test can be described thus: two-hybrid; GAL4-DBD fusions in yeast Y187 mated with GAL4-AD fusions in AH109; diploids on TDO plus 1 mM 3-AT and on QDO medium, 30°C, 3 days; both orientations.

Results are given in words; binding and its absence hold for the method and conditions named. Binding calls can cover weak binding; strength is not graded here. Tags and fused reporters may be left off the sequences shown.

In the case of TRIM69B, yeast two-hybrid fusion, the binding result is recorded as “binds weakly”.
